Some of the results follow.

The assay concerns the target T1, OsSMF1 (Oryza sativa, UniProt Q6ZLB0 1-436).
T1 sequence: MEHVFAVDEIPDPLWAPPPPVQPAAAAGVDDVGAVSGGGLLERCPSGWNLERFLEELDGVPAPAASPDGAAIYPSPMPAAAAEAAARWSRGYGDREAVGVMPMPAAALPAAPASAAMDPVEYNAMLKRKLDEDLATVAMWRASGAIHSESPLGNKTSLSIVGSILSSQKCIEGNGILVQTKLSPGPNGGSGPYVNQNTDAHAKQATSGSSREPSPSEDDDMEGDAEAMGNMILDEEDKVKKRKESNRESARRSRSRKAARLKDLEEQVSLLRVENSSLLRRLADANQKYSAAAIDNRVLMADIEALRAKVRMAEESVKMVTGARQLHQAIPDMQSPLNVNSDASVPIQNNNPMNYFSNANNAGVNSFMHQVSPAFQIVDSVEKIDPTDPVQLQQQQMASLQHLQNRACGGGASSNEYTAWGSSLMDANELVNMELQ
The experiment in a line: protein-binding microarray (RPBM); PBS, 2% BSA, 51.3 ng/ul salmon testes DNA, 50 uM zinc acetate, 200 nM TF, 25 C, 1 h; high values mean tight binding. The conditions noted are these: protein: recombinant; tags: N-terminal polyhistidine and DsRed monomer fusion (pET32a); chain copies: 2; label: CyDye5-dUTP incorporated in the synthesized complementary strand; 3' TTTTT single-stranded linker to array surface; dsDNA, one strand shown. In outline:
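An Axon 4000B scanner gave the binding signal as per-feature fluorescence intensity in arbitrary units. This followed washing of a custom Agilent array that had been incubated for 1 h at 25 °C with 200 nM protein in PBS, 2% BSA, salmon testes DNA and 50 µM zinc acetate. The proteins were transcription factors fused at the N-terminus to polyhistidine and DsRed, expressed in E. coli BL21-CodonPlus and purified on Ni–NTA.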
Consider “TGTTGCTAACCTCCAGATGGAGCTCCAGCAAGCACGTGATCGGAGTCACCTAGTGCAG”, for which the binding signal is 3200 fluorescence intensity (a.u.).
The result for “ACTCTTATTAATTCGAAAGATCCTACACACGTGTCGATTTCGGAGTCACCTAGTGCAG” reads 9630 fluorescence intensity (a.u.).
The result for “CCCTCCATCACCACCATGGTGCCATCAACATTGAACTGTTCGGAGTCACCTAGTGCAG” reads 3390 fluorescence intensity (a.u.); that for “TCGCGCGCGGCACACCTTCACGCTGCACCAATCCGCATCGCGGAGTCACCTAGTGCAG”, 4370 fluorescence intensity (a.u.); that for “GTTCATTAGCGCGTGATTAATTAAGTTTTAGTTATTTTCTCGGAGTCACCTAGTGCAG”, 25200 fluorescence intensity (a.u.).
The result for “GCCGCGCCGCGCCGTGGCGTGGCGTGGCGTGGCGCGGCCACGGAGTCACCTAGTGCAG” reads 6530 fluorescence intensity (a.u.); that for “TTGTCGAGCTCGTGCATCACATGTGGCTCGTAAACGCGCCCGGAGTCACCTAGTGCAG”, 3930 fluorescence intensity (a.u.).
Regarding “ACTTTATGACACACTGTGGTGTCAAAAGGCCCCTAAATTGCGGAGTCACCTAGTGCAG”, the binding signal is 3220 fluorescence intensity (a.u.).
With “CTCAATTATTGTTTCATTGAGCATTGTTTCCTACCATACACGGAGTCACCTAGTGCAG”, the binding signal is 3700 fluorescence intensity (a.u.).
The result for “TCTAAACTACAAGATGATAATAATTATTTTCTTAGTCTTTCGGAGTCACCTAGTGCAG” reads 8830 fluorescence intensity (a.u.); that for “TGTACGGATCGTACCTGACTCGTACCTAGCCAGCAGATTTCGGAGTCACCTAGTGCAG”, 3500 fluorescence intensity (a.u.); that for “CGCGAGGCGACACGCGTGGGCGGGACGTGGCCGCGCGTCGCGGAGTCACCTAGTGCAG”, 6280 fluorescence intensity (a.u.).
With “CAGCTATATATAGCTGGAGAAGGAGAGGGTGACATCAGCGCGGAGTCACCTAGTGCAG” the figure was 7160 fluorescence intensity (a.u.).
Regarding “GTTTCGTTGCGAAATCGTCTGTGTTGCGTAAGCAAACCACCGGAGTCACCTAGTGCAG”, the binding signal was 4040 fluorescence intensity (a.u.).
In the case of “CCGTAGCCACGTACGTAGTTCACACCGGCCCAGTCCGTTGCGGAGTCACCTAGTGCAG”, the binding signal was 4820 fluorescence intensity (a.u.).
The result for “AAGCTGCGACGCCACTCGAGGGCACGACACAAGCTGACGTCGGAGTCACCTAGTGCAG” reads 4200 fluorescence intensity (a.u.).
For the sequence “CCCATCCTGGGCCACACATGACATGTCGGAGAGAAGGGAGCGGAGTCACCTAGTGCAG”, the binding signal was 3500 fluorescence intensity (a.u.).
As to “CAAACGTGTTAAGGATCCACGTTGCGGCCCATAAAGGCCCCGGAGTCACCTAGTGCAG”, the binding signal is 4750 fluorescence intensity (a.u.).
With “GAAAGGAAGAGGTGGAGGAAGTGAGACCCACTGACTTGTGCGGAGTCACCTAGTGCAG” the figure was 24500 fluorescence intensity (a.u.).
With “CGAAACCATAGCTGTACTTATTTTGGAACGGAGGAATTAGCGGAGTCACCTAGTGCAG” the figure was 4050 fluorescence intensity (a.u.).
With “CGACGGAACGGGCGCTACATCCACGTGGCGTGCCACGTAGCGGAGTCACCTAGTGCAG” the figure was 12800 fluorescence intensity (a.u.).
In the case of “GCGACTCGGCGTTATCCGCAACACGTGGAGCAAGACGGCCCGGAGTCACCTAGTGCAG”, the binding signal is 3980 fluorescence intensity (a.u.).
With “TGCTCGCTCTGGACGCGTCGCCGCGCCCGCTCGGCTTCTTCGGAGTCACCTAGTGCAG” the figure was 3920 fluorescence intensity (a.u.).
In the case of “AGCTTCACGCATGAGTACACGTGCAAAATGAAGCAGCCCCCGGAGTCACCTAGTGCAG”, the binding signal is 4290 fluorescence intensity (a.u.).
Turning to “AAAGTTCGATAACATTTCATGGATTAGAGTACTCATCGATCGGAGTCACCTAGTGCAG”, the binding signal is 3640 fluorescence intensity (a.u.).
For the sequence “CCAAAACCTTGTTTGATTGTGATCTTGCCTACGTGGCATACGGAGTCACCTAGTGCAG”, the binding signal is 25600 fluorescence intensity (a.u.).
With “AGTACTGTGTGAGCGGTGAGGTGGCGGCGGCTGGTGGATCCGGAGTCACCTAGTGCAG” the figure was 4640 fluorescence intensity (a.u.); with “CATGGTGCTTACGTGATTATGTTGACCTAGATTTTATTCCCGGAGTCACCTAGTGCAG”, 4540 fluorescence intensity (a.u.).
The result for “TGGTTTTATTCGTCTAGCCCAATCTGACCGTGACCTATTCCGGAGTCACCTAGTGCAG” reads 3300 fluorescence intensity (a.u.); that for “ATGGAGAAATCCTCAAATATAAGTTTGTATACCCACGTGTCGGAGTCACCTAGTGCAG”, 7290 fluorescence intensity (a.u.).
The result for “CTAAGGTAGACATTGGGACAACTCCCATCTCACACTATTTCGGAGTCACCTAGTGCAG” reads 18200 fluorescence intensity (a.u.).
Regarding “CGCGGATCGGCGCGCCACGTGTACGGCCATGATTCATCTCCGGAGTCACCTAGTGCAG”, the binding signal was 11400 fluorescence intensity (a.u.).
With “CACCCGCCATCGTGGCGGACATTCCAGTATAGGTACGGCACGGAGTCACCTAGTGCAG” the figure was 6150 fluorescence intensity (a.u.); with “TTTCTGAAACTGATGCGTCAGCTCCATCATATCACGAAGACGGAGTCACCTAGTGCAG”, 6880 fluorescence intensity (a.u.); with “CACCTTCTTCAAGCTCCCTCCTCTGAAGCCTCTTCTTCTTCGGAGTCACCTAGTGCAG”, 34900 fluorescence intensity (a.u.).
With “ACAGCCACTGTGTTGTGCGCACGTGTAGCACGCGCTGGACCGGAGTCACCTAGTGCAG” the figure was 4900 fluorescence intensity (a.u.); with “AAGCCCCGTGCGTATGTTCACGGCGTGGCAGTAATGTAGCCGGAGTCACCTAGTGCAG”, 31500 fluorescence intensity (a.u.); with “CAATTCTGAGTTCTGACGGAAATTGCCCTTATCATTTTCGCGGAGTCACCTAGTGCAG”, 3820 fluorescence intensity (a.u.).
With “GTCAAAATTTGTAGTACTAAGATACGTCATATGCATCTAACGGAGTCACCTAGTGCAG” the figure was 6620 fluorescence intensity (a.u.).
Take “CACAATAATTACTACTCCCTCCGTCCCAGAATATACTAATCGGAGTCACCTAGTGCAG”: the binding signal was 18500 fluorescence intensity (a.u.).
With “AATGTCACGCCTCCATGTGTCCACGTAGCTTATTATGCAGCGGAGTCACCTAGTGCAG”, the binding signal is 6800 fluorescence intensity (a.u.).
Turning to “ATTTGGAAGAATTGTTGACTTGGTTTGATAGTTTCTCATACGGAGTCACCTAGTGCAG”, the binding signal was 34900 fluorescence intensity (a.u.).

The record behind these values is paper PMC7819943, “Rice protein-binding microarrays: a tool to detect cis-acting elements near promoter regions in rice”.
